Source: the supplement of paper PMC4604168 (melanoma cell lines)
The list shows a part of the results. Repeats are few or missing, and single values can be far off.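 Imaging used 1,536-well plates; nuclei positive for cleaved PARP by antibody were divided by total DNA-stained nuclei to yield the apoptosis fraction. Doses for screening kept most cells viable, and cell lines differ markedly in resting and induced cleaved-PARP levels.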

How the values were obtained:
Test in all cases: cleaved PARP positive nuclei fraction relative to DMSO control; melanoma cells; higher = more apoptosis
Settings in all cases: library dose: low library concentration; 72 h
501Mel = system: 501Mel
A101D = system: A101D
A2058 = system: A2058
C32 = system: C32
CBRC008 = system: CBRC008 (line from a melanoma biopsy)
CBRC014 = system: CBRC014 (line from a melanoma biopsy)
CBRC016 = system: CBRC016 (line from a melanoma biopsy)
CBRC017 = system: CBRC017 (line from a melanoma biopsy)
A375 = system: A375
CBRC013 = system: CBRC013 (line from a melanoma biopsy)

Row | Compound | cleaved PARP positive nuclei fraction (501Mel) | cleaved PARP positive nuclei fraction (A101D) | cleaved PARP positive nuclei fraction (A2058) | cleaved PARP positive nuclei fraction (C32) | cleaved PARP positive nuclei fraction (CBRC008) | cleaved PARP positive nuclei fraction (CBRC014) | cleaved PARP positive nuclei fraction (CBRC016) | cleaved PARP positive nuclei fraction (CBRC017) | cleaved PARP positive nuclei fraction (A375) | cleaved PARP positive nuclei fraction (CBRC013)
1 | CN(c1ncccc1CNc1nc(Nc2ccc3c(c2)CC(=O)N3)ncc1C(F)(F)F)S(C)(=O)=O + CCc1ccc(CCOc2ccc(CC3SC(=O)NC3=O)cc2)nc1 [pioglitazone] (first compound 0.08 µM, partner dose 2 µM) | 80.3% | 17.9% | 109% | 341% | 97.7% | 136% | 51.3% | 104% | – | –
2 | CC1(C)CCC(c2ccc(Cl)cc2)=C(CN2CCN(c3ccc(C(=O)NS(=O)(=O)c4ccc(N[C@H](CCN5CCOCC5)CSc5ccccc5)c(S(=O)(=O)C(F)(F)F)c4)cc3)CC2)C1 + Oc1nc(-c2ccc(C(F)(F)F)cc2)nc2c1CSCC2 [XAV939] (first compound 0.4 µM, partner dose 2 µM) | 29.6% | 32.2% | 90.3% | 161% | 389% | 581% | 230% | 443% | – | –
3 | CC1(C)CCC(c2ccc(Cl)cc2)=C(CN2CCN(c3ccc(C(=O)NS(=O)(=O)c4ccc(N[C@H](CCN5CCOCC5)CSc5ccccc5)c(S(=O)(=O)C(F)(F)F)c4)cc3)CC2)C1 + CCc1ccc(CCOc2ccc(CC3SC(=O)NC3=O)cc2)nc1 [pioglitazone] (first compound 0.4 µM, partner dose 2 µM) | 224% | 49.8% | 49.2% | 556% | 405% | 457% | 240% | 439% | – | –
4 | CCN(CC)CCNC(=O)c1c(C)[nH]c(/C=C2\C(=O)Nc3ccc(F)cc32)c1C [sunitinib] + N#Cc1c(O)c2c(-c3ccc(-c4ccccc4O)cc3)csc2[nH]c1=O [A769662] (first compound 0.4 µM, partner dose 2 µM) | 90.8% | 125% | 36.7% | 141% | 172% | 91.4% | 152% | 73% | – | –
5 | Cn1sc(=O)n(Cc2ccccc2)c1=O + CCCCCCCCCCCC1=C(O)C(=O)C=C(O)C1=O [Embelin] (first compound 0.4 µM, partner dose 1.2 µM) | 116% | 31% | 88.6% | 88.5% | 37.6% | 102% | 29.3% | 85.4% | – | –
6 | NC1(c2ccc(-c3nc4ccn5c(=O)[nH]nc5c4cc3-c3ccccc3)cc2)CCC1 + N#Cc1c(O)c2c(-c3ccc(-c4ccccc4O)cc3)csc2[nH]c1=O [A769662] (first compound 0.4 µM, partner dose 2 µM) | 138% | 15.6% | 63.9% | 128% | 77.9% | 71.7% | 21.1% | 63.2% | – | –
7 | C[C@]1(O)C[C@@H](c2nc(-c3ccc4ccc(-c5ccccc5)nc4c3)c3c(N)nccn32)C1 + O=C(O)C(=O)Nc1sc2c(c1C(=O)O)CCNC2 [TCS401] (first compound 0.4 µM, partner dose 1.66667 µM) | 65.8% | 18.7% | 45.9% | 37% | 179% | 112% | 83.4% | 76.1% | – | –
8 | CCN(CC)CCNC(=O)c1c(C)[nH]c(/C=C2\C(=O)Nc3ccc(F)cc32)c1C [sunitinib] + CCN(CC)CCCCNc1ncc2cc(-c3cc(OC)cc(OC)c3)c(NC(=O)NC(C)(C)C)nc2n1 [PD173074] (first compound 0.4 µM, partner dose 0.1 µM) | 99.5% | 15.4% | 214% | 135% | 110% | 93.6% | 50.6% | 106% | – | –
9 | NC1(c2ccc(-c3nc4ccn5c(=O)[nH]nc5c4cc3-c3ccccc3)cc2)CCC1 + Oc1nc(-c2ccc(C(F)(F)F)cc2)nc2c1CSCC2 [XAV939] (first compound 0.4 µM, partner dose 2 µM) | 56.7% | 23.3% | 72.2% | 24.3% | 101% | 66.5% | 53.9% | 78.2% | – | –
10 | C[C@]1(O)C[C@@H](c2nc(-c3ccc4ccc(-c5ccccc5)nc4c3)c3c(N)nccn32)C1 + CCCCCCCCCCCC1=C(O)C(=O)C=C(O)C1=O [Embelin] (first compound 0.4 µM, partner dose 1.2 µM) | 70.8% | 2780% | 66.2% | 56.9% | 79.6% | 109% | 64.7% | 234% | – | –
11 | CCCCCCCCc1ccc(CCC(N)(CO)CO)cc1 [fingolimod] + O=C(CCCCCCC(=O)Nc1ccccc1)NO [vorinostat] (first compound 2 µM, partner dose 0.08 µM) | – | 70.2% | 39.6% | 91.2% | 70.4% | 77.6% | 49.5% | 99.1% | 105% | 85.2%
12 | CN(c1ncccc1CNc1nc(Nc2ccc3c(c2)CC(=O)N3)ncc1C(F)(F)F)S(C)(=O)=O + CO[C@@H]1[C@H](N(C)C(=O)c2ccccc2)C[C@H]2O[C@]1(C)n1c3ccccc3c3c4c(c5c6ccccc6n2c5c31)C(=O)NC4 [Midostaurin] (first compound 0.08 µM, partner dose 0.08 µM) | – | 203% | 106% | 370% | 111% | 113% | 77.7% | 101% | 99.9% | 151%

Laid out differently: entries from further up

| Row | Compound | cleaved PARP positive nuclei fraction (501Mel) | cleaved PARP positive nuclei fraction (A101D) | cleaved PARP positive nuclei fraction (A2058) | cleaved PARP positive nuclei fraction (C32) | cleaved PARP positive nuclei fraction (CBRC008) | cleaved PARP positive nuclei fraction (CBRC014) | cleaved PARP positive nuclei fraction (CBRC016) | cleaved PARP positive nuclei fraction (CBRC017) | cleaved PARP positive nuclei fraction (A375) | cleaved PARP positive nuclei fraction (CBRC013) |
| --- | --- | --- | --- | --- | --- | --- | --- | --- | --- | --- | --- |
| 3 | CC1(C)CCC(c2ccc(Cl)cc2)=C(CN2CCN(c3ccc(C(=O)NS(=O)(=O)c4ccc(N[C@H](CCN5CCOCC5)CSc5ccccc5)c(S(=O)(=O)C(F)(F)F)c4)cc3)CC2)C1 + CCc1ccc(CCOc2ccc(CC3SC(=O)NC3=O)cc2)nc1 [pioglitazone] (first compound 0.4 µM, partner dose 2 µM) | 224% | 49.8% | 49.2% | 556% | 405% | 457% | 240% | 439% | – | – |
| 5 | Cn1sc(=O)n(Cc2ccccc2)c1=O + CCCCCCCCCCCC1=C(O)C(=O)C=C(O)C1=O [Embelin] (first compound 0.4 µM, partner dose 1.2 µM) | 116% | 31% | 88.6% | 88.5% | 37.6% | 102% | 29.3% | 85.4% | – | – |
